Experimental data: patent publication CN112409487A
Results are given in words; binding and its absence hold for the method and conditions named. Some entries that bind do so weakly or less than the wild type.

Chains of the proteins cited; added tags and fusions are not shown. Residues count along the entry.
UniProt P02786, residues 101-760: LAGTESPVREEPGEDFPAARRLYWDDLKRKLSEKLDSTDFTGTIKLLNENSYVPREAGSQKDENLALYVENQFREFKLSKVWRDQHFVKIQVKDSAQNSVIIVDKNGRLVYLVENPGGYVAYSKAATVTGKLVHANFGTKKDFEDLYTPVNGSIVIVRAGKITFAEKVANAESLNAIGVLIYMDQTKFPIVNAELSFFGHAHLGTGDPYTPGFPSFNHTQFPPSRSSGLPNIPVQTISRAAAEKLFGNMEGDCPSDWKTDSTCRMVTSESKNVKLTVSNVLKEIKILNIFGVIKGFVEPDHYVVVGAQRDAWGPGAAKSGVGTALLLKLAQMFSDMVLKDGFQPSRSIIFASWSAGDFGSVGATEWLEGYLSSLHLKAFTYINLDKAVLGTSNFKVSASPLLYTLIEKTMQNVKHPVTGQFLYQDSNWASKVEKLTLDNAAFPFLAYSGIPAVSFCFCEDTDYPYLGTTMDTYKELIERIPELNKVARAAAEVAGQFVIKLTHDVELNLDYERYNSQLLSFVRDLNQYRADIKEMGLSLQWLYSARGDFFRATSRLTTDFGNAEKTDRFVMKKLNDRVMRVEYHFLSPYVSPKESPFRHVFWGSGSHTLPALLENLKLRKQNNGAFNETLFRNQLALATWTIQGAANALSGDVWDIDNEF

Legend:
[1] = biological target: sTfR重组蛋白 (UniProt P02786); assay: indirect ELISA, serially diluted supernatants of positive clones on coated sTfR recombinant protein
[2] = biological target: sTfR重组蛋白 (UniProt P02786); assay: indirect ELISA, protein G purified antibody on coated sTfR recombinant protein

binding [1]: binds
binding [2]: binds
B1: 鼠单克隆抗体8E11 (antibody, V domains shown)
VH: QVQLQQSGAELVRPGTSVKISCKASGYAFTNYWLGWVKQRPGRGLEWIGDIFPGSSNTYYNEKFKGKASLTADKSSSTAYMHLSSLTSEDSAVYFCARVKDYYAMGYWGQGTSVTVSS
VL: ENVLTQSPAIMSASPGEKVTMTCSASSSVSYMNWYQQKSITSPKLWIYDTFKLASGVPGRFSGSGSGNSYSLTISSMEAEDVATYYCFQGSGYPYTFGGGTKLEIK
